Data as given in PubChem BioAssay AID493014 (National Center for Advancing Translational Sciences (NCATS), 2011).
The list shows a part of the results. These are further read-outs of the screen, such as a control signal, another cell line or another target. No call is given for them. Compounds called inactive in the main read-out are mostly missing here. The note in brackets gives the kind of curve behind each potency; many fits are weak.

Experiment: qHTS Assay to Find Inhibitors of Chronic Active B-Cell Receptor Signaling
Settings: ABC-DLBCL IkBa-CBG/CBR reporter, luminescence ratio (green luciferase fused to IkBa over red control in TMD8 lymphoma cells), 4 h
Summary of the method: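 Doxycycline induced both beetle luciferases in TMD8 lymphoma cells; IKK-driven degradation limits the IkappaBalpha-fused green signal, while red luminescence normalises for cell number and nonspecific effects. Compounds tested up to 46 uM, 4 hrs.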

[1] = measured here: CBR red luminescence, cell number
[2] = measured here: IkBa-CBG green luminescence

Structure (SMILES)	AC50 [1]	AC50 [2]
CCOC(=O)C1=C(C)NC(=O)NC1c1ccc(-c2ccc(Cl)cc2)o1 (centres undefined)	17.8 µM [falling, partial curve, poor fit]	
O=C(COC(=O)c1cccs1)Nc1nnc(-c2ccccc2)o1	18.4 µM [falling, partial curve]	
CC(C)c1ccc(Nc2nc(CC(=O)O)cs2)cc1	3.55 µM [rising, full curve]	
N#Cc1ccccc1-n1c(N)c(C(=O)N2CCCC2)sc1=S	3.55 µM [falling, partial curve, poor fit]	
COC(=O)c1ccc(CSc2nnnn2Cc2ccccc2)cc1	0.326 µM [rising, full curve, poor fit]	
COc1ccc(N=Nc2n(C)c3ccccc3[n+]2C)cc1	12.6 µM [falling, partial curve]	15.8 µM [falling, single point]
CCOc1ccccc1Oc1ncnc2c1oc1ccccc12	35.5 µM [rising, single point]	
c1csc(C2=NNC(=NC3CCCCC3)SC2)c1	15.8 µM [falling, single point]	
O=C(O)c1cccc(-n2cccc2/C=C\[N+](=O)[O-])c1	14.1 µM [falling, single point]	12.6 µM [rising, single point]
Cn1ncc2c(Nc3ccc([N+](=O)[O-])cc3)nc(Cl)nc21	11.2 µM [rising, partial curve]	
COc1ccc(C(C(=O)NC(C)(C)C)N(Cc2ccco2)C(=O)CCC(=O)Nc2cc(C)on2)cc1 (centres undefined)	32.6 µM [rising, single point]	
COC(=O)C1=CN(Cc2ccc(OC)c(OC)c2)C=C(C(=O)OC)C1c1ccc(O)cc1	0.631 µM [rising, full curve, poor fit]	
O=C(c1ccco1)N1CCN(c2ncnc3c2[nH]c2ccc(Cl)cc23)CC1	25.9 µM [falling, partial curve, poor fit]	
O=C(OCc1nnc(-c2ccccc2)o1)c1ccco1	11.2 µM [rising, single point]	
CC(C)(C)c1ccc(S(=O)(=O)NCC(=O)N2CCN(C(=O)c3ccco3)CC2)cc1	7.31 µM [falling, single point]	
O=C(O)C1C2C=CC(C2)C1C(=O)Nc1ccc(Cl)c(Cl)c1 (centres undefined)	35.5 µM [rising, single point]	
O=C(O)COc1ccc(/C=C/c2nc(-c3ccccc3O)n[nH]2)cc1	3.98 µM [falling, full curve]	
Cc1cccc(N2CN=c3s/c(=C\c4ccccn4)c(=O)n3C2)c1	11.2 µM [falling, partial curve]	
Cc1nc2sc(C(c3ccccc3)N3CCOCC3)c(O)n2n1 (centres undefined)	10.3 µM [rising, partial curve]	
Cc1nc(SCc2ccccc2)nc2c1CCC2	3.16 µM [rising, full curve]	
COC(=O)c1c(C(=O)OC)c2ccncn2c1Cl	2.06 µM [falling, single point]	

Structure (SMILES)	AC50 [1]	AC50 [2]
Cc1ccc(C)c(NC(=O)COC(=O)CNC(=O)c2ccccc2Cl)c1	20 µM [rising, single point]	
CN(C)C(CNC(=O)c1cccc(S(=O)(=O)N2CC3(C)CC2CC(C)(C)C3)c1)c1ccco1 (centres undefined)	0.708 µM [falling, full curve, poor fit]	
CCSc1nnc(NC(=O)c2ccccc2)s1	7.31 µM [falling, partial curve]	
COc1ccc(C(=O)OCc2c(C)noc2C)cc1	1.58 µM [rising, partial curve, poor fit]	
CCOC(=O)c1ccc(COC(=O)c2cc3ccccc3oc2=O)o1	0.92 µM [rising, full curve, poor fit]	
COc1cc(OC)cc(C(=O)Nc2ccc3nc4n(c(=O)c3c2)CCCC4)c1	3.98 µM [falling, full curve]	
Nc1nc(SCc2ccccc2)ns1	23.1 µM [rising, partial curve, poor fit]	
Cc1noc(C)c1C(=O)OCC(=O)c1cc(C)n(Cc2ccccc2Cl)c1C	29.1 µM [falling, single point]	
O=C(Nc1nc2ccc(F)cc2s1)c1cccc(S(=O)(=O)N2CCc3ccccc32)c1		2.59 µM [rising, full curve, poor fit]
COC(=O)c1ccccc1NC(=O)Cn1nnc(-c2ccc(OC)cc2)n1	32.6 µM [falling, partial curve, poor fit]	
Cc1cc(C(F)(F)F)nn1CC(=O)N1CCOCC1	3.66 µM [falling, single point]	
CCCCNC(=S)NNC(=O)c1csc(C)c1C	2.31 µM [rising, partial curve]	
CC1(C)CC(=O)C=C(Nc2ccc(OCC(F)(F)C(F)F)cc2)C1	32.6 µM [falling, single point]	
Cc1ccc(S(=O)(=O)N2CCOCC2)cc1C(=O)Nc1ccc(N2CCCCCC2)cc1	10.3 µM [falling, partial curve]	
Cc1ccc(S(=O)(=O)n2c(CN3CCCC(C)C3)nc3ccccc32)cc1 (centres undefined)	29.1 µM [rising, single point]	
Cc1nn(Cc2ccc(Cl)cc2Cl)c(Cl)c1/C=C/C(=O)OCC(=O)NCC(F)(F)F	2.91 µM [rising, single point]	
CCOc1ccc(N(CC(=O)NCc2ccccc2)S(=O)(=O)c2ccc(C)cc2)cc1	20 µM [falling, single point]	
Cc1cc(C)n(CC(=O)NN)n1	11.2 µM [falling, partial curve]	
CCOC(=O)N1CCN(CCC(=O)c2ccc(OC)cc2)CC1	20 µM [falling, partial curve]	
COc1cccc(/C=N/NC(=O)c2cccc([N+](=O)[O-])c2)c1OS(=O)(=O)c1ccccc1	17.8 µM [rising, single point]	
Cc1ccc(NC(=O)CSc2nc(N)cc(=O)[nH]2)cc1S(=O)(=O)N1CCCCC1	23.1 µM [rising, partial curve, poor fit]	
